# The other results are listed elsewhere or left out.
# How the values were obtained:
# Assay in all cases: glycan array binding signal (z-score within array); higher = stronger binding
# Details in all cases: glycan notation: IUPAC condensed, linker removed
# [1] = target: Man(a1-2)Man(a1-3)[Man(a1-6)]Man(a1-6)[Man(a1-2)Man(a1-3)]Man(b1-4)GlcNAc(b1-4)GlcNAc
# Outline: (§1)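 Glycan array data were curated from 3228 arrays in the Consortium for Functional Glycomics database and kept only where the protein sequence was available. Glycan names were converted to IUPAC-condensed notation, and columns mapping to the same glycan were averaged. The binding signal is a within-array Z-score, averaged across arrays of the same protein sequence at different concentrations or buffers and across linkers. Negative Z-scores can be read as non-binding.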
# [2] = target: Man(a1-2)Man(a1-6)[Man(a1-3)]Man(a1-6)[Man(a1-2)Man(a1-2)Man(a1-3)]Man
# Outline: as §1
# [3] = target: Man(a1-2)Man(a1-6)[Man(a1-3)]Man(a1-6)[Man(a1-2)Man(a1-2)Man(a1-3)]Man(b1-4)GlcNAc(b1-4)GlcNAc
# Outline: as §1
# Man(a1-3)[Man(a1-6)]Man = target: Man(a1-3)[Man(a1-6)]Man
# Outline: as §1
# [4] = target: Man(a1-3)[Man(a1-6)]Man(a1-6)[Man(a1-2)Man(a1-3)]Man(b1-4)GlcNAc(b1-4)GlcNAc
# Outline: as §1
# [5] = target: Man(a1-3)[Man(a1-6)]Man(a1-6)[Man(a1-3)]Man
# Outline: as §1
# [6] = target: Man(a1-3)[Man(a1-6)]Man(a1-6)[Man(a1-3)]Man(b1-4)GlcNAc(b1-4)GlcNAc
# Outline: as §1
# [7] = target: Man(a1-3)[Man(a1-6)]Man(b1-4)GlcNAc(b1-4)GlcNAc
# Outline: as §1
# Man(a1-6)Man = target: Man(a1-6)Man
# Outline: as §1
# Man(b1-4)GlcNAc = target: Man(b1-4)GlcNAc
# Outline: as §1
# Neu5Ac(a2-3)Gal = target: Neu5Ac(a2-3)Gal
# Outline: as §1
# [8] = target: Neu5Ac(a2-3)Gal(b1-3)GalNAc
# Outline: as §1
# [9] = target: Neu5Ac(a2-3)Gal(b1-3)GalNAc(b1-3)Gal(a1-4)Gal(b1-4)Glc
# Outline: as §1
# [10] = target: Neu5Ac(a2-3)Gal(b1-3)GalNAc(b1-4)[Neu5Ac(a2-3)]Gal(b1-4)Glc
# Outline: as §1
# [11] = target: Neu5Ac(a2-3)Gal(b1-3)GalNAc(b1-4)[Neu5Ac(a2-8)Neu5Ac(a2-3)]Gal(b1-4)Glc
# Outline: as §1
# [12] = target: Neu5Ac(a2-3)Gal(b1-3)GalNAc6S
# Outline: as §1
# [13] = target: Neu5Ac(a2-3)Gal(b1-3)GlcNAc
# Outline: as §1
# [14] = target: Neu5Ac(a2-3)Gal(b1-3)GlcNAc(b1-3)Gal(b1-3)GlcNAc
# Outline: as §1
# [15] = target: Neu5Ac(a2-3)Gal(b1-3)GlcNAc(b1-3)Gal(b1-4)GlcNAc
# Outline: as §1
# [16] = target: Neu5Ac(a2-3)Gal(b1-3)GlcNAc(b1-3)GalNAc
# Outline: as §1
# [17] = target: Neu5Ac(a2-3)Gal(b1-3)GlcNAc6S
# Outline: as §1
# [18] = target: Neu5Ac(a2-3)Gal(b1-3)[Fuc(a1-4)]GlcNAc
# Outline: as §1
# [19] = target: Neu5Ac(a2-3)Gal(b1-3)[Fuc(a1-4)]GlcNAc(b1-3)Gal(b1-3)[Fuc(a1-4)]GlcNAc
# Outline: as §1
# [20] = target: Neu5Ac(a2-3)Gal(b1-3)[Fuc(a1-4)]GlcNAc(b1-3)Gal(b1-4)[Fuc(a1-3)]GlcNAc
# Outline: as §1
# [21] = target: Neu5Ac(a2-3)Gal(b1-3)[Neu5Ac(a2-3)Gal(b1-4)]GlcNAc
# Outline: as §1
# [22] = target: Neu5Ac(a2-3)Gal(b1-3)[Neu5Ac(a2-6)]GalNAc
# Outline: as §1
# Neu5Ac(a2-3)Gal(b1-4)Glc = target: Neu5Ac(a2-3)Gal(b1-4)Glc
# Outline: as §1
# [23] = target: Neu5Ac(a2-3)Gal(b1-4)GlcNAc
# Outline: as §1
# [24] = target: Neu5Ac(a2-3)Gal(b1-4)GlcNAc(b1-2)Man(a1-3)[GlcNAc(b1-2)Man(b1-4)GlcNAc(b1-2)Man(a1-6)]Man(b1-4)GlcNAc(b1-4)GlcNAc
# Outline: as §1
# [25] = target: Neu5Ac(a2-3)Gal(b1-4)GlcNAc(b1-2)Man(a1-3)[Neu5Ac(a2-6)Gal(b1-4)GlcNAc(b1-2)Man(a1-6)]Man(b1-4)GlcNAc(b1-4)GlcNAc
# Outline: as §1
# [26] = target: Neu5Ac(a2-3)Gal(b1-4)GlcNAc(b1-3)Gal
# Outline: as §1
# [27] = target: Neu5Ac(a2-3)Gal(b1-4)GlcNAc(b1-3)Gal(b1-3)GlcNAc
# Outline: as §1
# [28] = target: Neu5Ac(a2-3)Gal(b1-4)GlcNAc(b1-3)Gal(b1-4)GlcNAc
# Outline: as §1
# [29] = target: Neu5Ac(a2-3)Gal(b1-4)GlcNAc(b1-3)Gal(b1-4)GlcNAc(b1-3)Gal(b1-4)GlcNAc
# Outline: as §1
# [30] = target: Neu5Ac(a2-3)Gal(b1-4)GlcNAc(b1-3)Gal(b1-4)[Fuc(a1-3)]GlcNAc
# Outline: as §1
# [31] = target: Neu5Ac(a2-3)Gal(b1-4)GlcNAc(b1-3)GalNAc
# Outline: as §1
# [32] = target: Neu5Ac(a2-3)Gal(b1-4)GlcNAc(b1-6)[Gal(b1-3)]GalNAc
# Outline: as §1
# [33] = target: Neu5Ac(a2-3)Gal(b1-4)GlcNAc(b1-6)[Neu5Ac(a2-3)Gal(b1-3)]GalNAc
# Outline: as §1
# [34] = target: Neu5Ac(a2-3)Gal(b1-4)GlcNAc6S
# Outline: as §1
# [35] = target: Neu5Ac(a2-3)Gal(b1-4)[Fuc(a1-3)]GlcNAc
# Outline: as §1
# [36] = target: Neu5Ac(a2-3)Gal(b1-4)[Fuc(a1-3)]GlcNAc(b1-3)Gal
# Outline: as §1
# [37] = target: Neu5Ac(a2-3)Gal(b1-4)[Fuc(a1-3)]GlcNAc(b1-3)Gal(b1-4)GlcNAc
# Outline: as §1
# [38] = target: Neu5Ac(a2-3)Gal(b1-4)[Fuc(a1-3)]GlcNAc(b1-3)Gal(b1-4)[Fuc(a1-3)]GlcNAc(b1-3)Gal(b1-4)[Fuc(a1-3)]GlcNAc
# Outline: as §1
# [39] = target: Neu5Ac(a2-3)Gal(b1-4)[Fuc(a1-3)]GlcNAc(b1-3)GalNAc
# Outline: as §1
# [40] = target: Neu5Ac(a2-3)Gal(b1-4)[Fuc(a1-3)]GlcNAc(b1-6)[Gal(b1-3)]GalNAc
# Outline: as §1
# [41] = target: Neu5Ac(a2-3)Gal(b1-4)[Fuc(a1-3)]GlcNAc6S
# Outline: as §1
# [42] = target: Neu5Ac(a2-3)Gal6S(b1-4)GlcNAc
# Outline: as §1
# [43] = target: Neu5Ac(a2-3)Gal6S(b1-4)[Fuc(a1-3)]GlcNAc
# Outline: as §1
# Neu5Ac(a2-3)GalNAc = target: Neu5Ac(a2-3)GalNAc
# Outline: as §1
# [44] = target: Neu5Ac(a2-3)GalNAc(b1-4)GlcNAc
# Outline: as §1
# [45] = target: Neu5Ac(a2-3)[GalNAc(b1-4)]Gal(b1-4)Glc
# Outline: as §1
# [46] = target: Neu5Ac(a2-3)[GalNAc(b1-4)]Gal(b1-4)GlcNAc
# Outline: as §1
# [47] = target: Neu5Ac(a2-3)[GalNAc(b1-4)]Gal(b1-4)GlcNAc(b1-3)GalNAc
# Outline: as §1
# [48] = target: Neu5Ac(a2-3)[Neu5Ac(a2-6)]GalNAc
# Outline: as §1
# Neu5Ac(a2-6)Gal = target: Neu5Ac(a2-6)Gal
# Outline: as §1
# [49] = target: Neu5Ac(a2-6)Gal(b1-3)GlcNAc(b1-3)[Gal(b1-4)GlcNAc(b1-6)]Gal(b1-4)Glc
# Outline: as §1
# Neu5Ac(a2-6)Gal(b1-4)Glc = target: Neu5Ac(a2-6)Gal(b1-4)Glc
# Outline: as §1
# [50] = target: Neu5Ac(a2-6)Gal(b1-4)GlcNAc
# Outline: as §1
# [51] = target: Neu5Ac(a2-6)Gal(b1-4)GlcNAc(b1-2)Man(a1-3)Man(b1-4)GlcNAc(b1-4)GlcNAc
# Outline: as §1
# [52] = target: Neu5Ac(a2-6)Gal(b1-4)GlcNAc(b1-2)Man(a1-3)[Gal(b1-4)GlcNAc(b1-2)Man(a1-6)]Man(b1-4)GlcNAc(b1-4)GlcNAc
# Outline: as §1
binder,measurement,setting,value
"NanH (Corynebacterium diphtheriae), C6JSW6 (protein) MYSSNRTYSRAILGLSAVLTLSFTSLVAPVNAEEPETVVPATAELEGEVAATLPSAETGLLDAAPPKPVARGAAGDLQLPAVNEKEVFEEGRVIRAPEPDQSRCYRIPALVTAKNGDLLLAFDNRYGGGDGAKTWCRDAPYENMKRINRQNMQTDIQLYRSVDNGQSFEDFGYIAQGTADVRELSYTDPALVTDRTTGKIFAFFVRAYDYRVGQSSAGFNEGDVEAEIQKRDVQDTVVVESLDGGQTWGNMRLLSALTAKVSSISTGDTIFDGRGRFVTSGAGIQLQYGEHAGRLIVPISVDIDPKDSAKFINLAIYSDDHGQTWQAGIGTAGGAGFSGDVSKIVELSDGRLMMSSKDNDKPRWVSYSEDQGENWSTPKRKIIAPPQHPEKHNTGINVGLIRAYPNAPENSAAARVLLYSAPIDQRYSHKHTEDGRNNGWVMGSCDDGKTWSFGRQIEKNRFQYSSMTVMSDGNIGMVYESGDFSTGMNLKFAKFNMAWLGADCHSNEALGLTGDIDKEIVEAQEKAAEATKEAQEAAEKVQKLTEELAAARKENDELKNQVKGFKEAVGDLANEAEDLADKVFKLETAVTEAKEKATVAEKAASDAVTQLQKAESIAEEQKAKAESAAAEAQALREKLERLEGSILTVKENPEAEEIADLSSTAKDAADAARRAATDANGALSGQKQDEEKPAMGLMGILKVLAGIIPLVAIIATIFQTFRLPFNIPGMR",glycan array binding signal (z-score),[1],-0.263
same,glycan array binding signal (z-score),[2],-0.745
same,glycan array binding signal (z-score),[3],-1.3
same,glycan array binding signal (z-score),Man(a1-3)[Man(a1-6)]Man,-0.151
same,glycan array binding signal (z-score),[4],-0.608
same,glycan array binding signal (z-score),[5],0.012
same,glycan array binding signal (z-score),[6],-0.41
same,glycan array binding signal (z-score),[7],-0.475
same,glycan array binding signal (z-score),Man(a1-6)Man,0.247
same,glycan array binding signal (z-score),Man(b1-4)GlcNAc,-0.567
same,glycan array binding signal (z-score),Neu5Ac(a2-3)Gal,0.353
same,glycan array binding signal (z-score),[8],-0.593
same,glycan array binding signal (z-score),[9],-1.15
same,glycan array binding signal (z-score),[10],-0.204
same,glycan array binding signal (z-score),[11],-1.39
same,glycan array binding signal (z-score),[12],1.83
same,glycan array binding signal (z-score),[13],0.707
same,glycan array binding signal (z-score),[14],-0.097
same,glycan array binding signal (z-score),[15],0.292
same,glycan array binding signal (z-score),[16],2.18
same,glycan array binding signal (z-score),[17],-0.246
same,glycan array binding signal (z-score),[18],-0.383
same,glycan array binding signal (z-score),[19],0.874
same,glycan array binding signal (z-score),[20],-0.505
same,glycan array binding signal (z-score),[21],0.277
same,glycan array binding signal (z-score),[22],0.915
same,glycan array binding signal (z-score),Neu5Ac(a2-3)Gal(b1-4)Glc,-0.854
same,glycan array binding signal (z-score),[23],0.221
same,glycan array binding signal (z-score),[24],0.603
same,glycan array binding signal (z-score),[25],0.27
same,glycan array binding signal (z-score),[26],-0.21
same,glycan array binding signal (z-score),[27],-0.216
same,glycan array binding signal (z-score),[28],-0.265
same,glycan array binding signal (z-score),[29],-1.33
same,glycan array binding signal (z-score),[30],1.67
same,glycan array binding signal (z-score),[31],-0.067
same,glycan array binding signal (z-score),[32],0.096
same,glycan array binding signal (z-score),[33],1.28
same,glycan array binding signal (z-score),[34],0.263
same,glycan array binding signal (z-score),[35],-0.681
same,glycan array binding signal (z-score),[36],-0.518
same,glycan array binding signal (z-score),[37],1.67
same,glycan array binding signal (z-score),[38],-1.45
same,glycan array binding signal (z-score),[39],0.742
same,glycan array binding signal (z-score),[40],0.351
same,glycan array binding signal (z-score),[41],-1
same,glycan array binding signal (z-score),[42],-1.04
same,glycan array binding signal (z-score),[43],-0.72
same,glycan array binding signal (z-score),Neu5Ac(a2-3)GalNAc,-0.952
same,glycan array binding signal (z-score),[44],-1.16
same,glycan array binding signal (z-score),[45],0.651
same,glycan array binding signal (z-score),[46],-0.594
same,glycan array binding signal (z-score),[47],-0.358
same,glycan array binding signal (z-score),[48],-0.803
same,glycan array binding signal (z-score),Neu5Ac(a2-6)Gal,-1.05
same,glycan array binding signal (z-score),[49],0.06
same,glycan array binding signal (z-score),Neu5Ac(a2-6)Gal(b1-4)Glc,0.051
same,glycan array binding signal (z-score),[50],0.068
same,glycan array binding signal (z-score),[51],-0.294
same,glycan array binding signal (z-score),[52],0.061

# Source: the supplement of paper PMC8728848
